Some of the results follow. Shown are side measurements of this screen, not its main read-out; they come without a call. Most of these compounds were active or inconclusive in the main read-out, so they are no random draw. The note in brackets gives the kind of curve behind each potency; many fits are weak.
Assay: qHTS Assay for Lipid Storage Modulators in Drosophila S3 Cells;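 on cell number change: cells counted by Cell Tracker Red CMTPX staining in the red channel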
Details: BODIPY lipid droplet fluorescence, 18-24 h; for cell number change: measured here: cell count max response, cells fed with added oleic acid
Outline: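 Drosophila S3 cells got compounds at several concentrations plus oleic acid (400 uM solution). Laser-scanning cytometry with 488 nm excitation read lipid droplets at 500-530 nm and cells at 575-640 nm. Percent activity was relative to 20 uM Triacsin C.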

[1] = measured here: lipid fluorescence (Fed channel) AC50, cells fed with added oleic acid
[2] = measured here: cell number channel AC50, cells fed with added oleic acid

Compound | cell number change [%] | AC50 [1] | AC50 [2]
Cc1ccc(C(=O)NNC(=O)C2CCN(c3ncccn3)CC2)cc1 | 28.4 | 29.1 µM [rising, single point] | 
Cc1cccc(/N=C/C2=C(O)CC(C)(C)CC2=O)n1 | -26.8 | 2.59 µM [falling, full curve] | 
CCOc1ccc2nc(N3C(=O)C(O)=C(C(=O)c4ccco4)C3c3ccco3)sc2c1 (stereo not given) | -11.1 | 0.58 µM [falling, full curve] | 7.31 µM [falling, partial curve]
CCCn1c(SCC(=O)Nc2ccc3c(c2)OCCO3)n[nH]c1=O | -7.63 |  | 
CC(C)Nc1ccccc1 | -3.05 | 0.116 µM [rising, single point] | 
CC(=O)NCCn1c(SCc2ccccc2F)nc2ccccc2c1=O | -17.9 | 7.31 µM [falling, partial curve] | 
CCN(Cc1ccccc1)C(=O)CSc1nncn1C | -20.8 |  | 
Cc1csc(=O)n1CCC(=O)OC(C)C(=O)Nc1ccc(N2CCOCC2)cc1 (stereo not given) | -11 | 6.51 µM [falling, single point] | 5.8 µM [falling, single point]
COC(=O)C1CCN(C(=O)[C@H](C)NC(=O)C2CC(=O)N(c3ccc(F)cc3)C2)CC1 (stereo not given in full) | -16.3 | 2.91 µM [falling, single point] | 
COc1ccccc1COCC(O)CNCCc1ccc(C(F)(F)F)cc1 (stereo not given) |  |  | 4.61 µM [rising, single point]
O=C(O)c1sccc1S(=O)(=O)N1CCOCC1 | -32.4 | 0.517 µM [falling, full curve] | 1.84 µM [falling, full curve]
O=C(Nc1cccnc1)OCc1ccccc1 | 3.15 | 29.1 µM [rising, single point] | 
O=C(N/C(=C/c1ccco1)C(=O)N1CCCCCC1)c1cccs1 | 21.8 | 0.259 µM [rising, full curve, poor fit] | 
CC(C)(C)n1ncc2c(=O)n(CC(=O)Nc3ccc(Cl)cc3)cnc21 | 12.2 |  | 
COc1ccc(C(=O)N2CCC(C(=O)NCc3ccccn3)CC2)cc1 | -36.3 |  | 14.6 µM [falling, single point]
COc1cc(O)c2c(c1)COC2=O | 0.37 | 0.13 µM [falling, full curve, poor fit] | 
O=C(O)c1cccc(NC(=O)c2cccc(S(=O)(=O)Nc3cccc([N+](=O)[O-])c3)c2)c1 | 11.7 | 6.51 µM [falling, single point] | 
CC1CN(C(=O)c2cccc(COc3ccc(Br)cc3)c2)CC(C)O1 (stereo not given) | 55.7 |  | 29.1 µM [rising, single point]
Cc1ccc(C(=O)CC2(O)C(=O)N(Cc3ccccc3)c3ccccc32)o1 (stereo not given) | 11.9 |  | 
COc1cccc(CN(CC2CCCO2)S(=O)(=O)c2ccc(S(=O)(=O)N(C)C)cc2)c1 (stereo not given) | 21.9 | 6.51 µM [rising, single point] | 

Compound | cell number change [%] | AC50 [1] | AC50 [2]
COc1ccccc1C(=O)NNC(=O)C(=O)NCc1ccccc1 | -40.1 | 18.4 µM [falling, single point] | 29.1 µM [falling, single point]
Fc1cccc(Cl)c1/C=N/Nc1c(Cl)cncc1Cl | 2.7 | 0.82 µM [falling, single point] | 
O=C(Nc1cc(S(=O)(=O)N2CCCCCC2)ccc1OCC(F)(F)F)c1cnccn1 | 25.5 | 20.6 µM [rising, partial curve, poor fit] | 
CC(NC(=O)CCN1C(=O)c2ccccc2C1=O)c1ccccc1 (stereo not given) | 12.6 | 6.51 µM [falling, single point] | 
O=C(c1cccs1)N1CCCC(c2nc(-c3ccc(F)cc3)no2)C1 (stereo not given) | 20.1 | 14.6 µM [rising, partial curve] | 
CCCCc1cc(=O)oc2cc(OCC(=O)Nc3ccccn3)ccc12 | 1.13 | 5.17 µM [falling, partial curve] | 3.66 µM [falling, single point]
Cc1ccc(/C=C/C(=O)N2CCCC(C(N)=O)C2)o1 (stereo not given) | -23.8 | 16.4 µM [falling, single point] | 
CC(/C=N/NC(=O)c1cc(-c2ccccc2)nc2ccccc12)=C\c1ccco1 | -0.997 | 3.66 µM [rising, single point] | 
CC(C)C1N(S(=O)(=O)c2ccccc2)CCN1S(=O)(=O)c1ccccc1 |  |  | 0.651 µM [falling, full curve, poor fit]
C=CCSCC1Nc2cc(Cl)c(S(N)(=O)=O)cc2S(=O)(=O)N1 (stereo not given) |  | 25.9 µM [rising, single point] | 
O=C(Nc1ccccc1)c1ccccc1CSc1ccccc1 | -16.5 | 0.651 µM [falling, full curve, poor fit] | 
O=C(N/N=C/C(Br)=C/c1ccccc1)C(O)c1ccccc1 (stereo not given) | -46.8 | 11.6 µM [falling, partial curve] | 20.6 µM [falling, partial curve, poor fit]
Cc1nn(-c2nc(-c3ccco3)cc(C(F)(F)F)n2)c(C)c1Cl | 12.4 | 11.6 µM [rising, partial curve, poor fit] | 
Cc1ccc(-c2noc(C3CCCN(C(=O)c4c(F)cccc4F)C3)n2)cc1 (stereo not given) | -17.7 | 25.9 µM [falling, single point] | 0.103 µM [falling, full curve, poor fit]
COCCOC(=O)C1=C(C)OC(N)=C(C#N)C1c1cc2cccc(C)c2nc1Cl (stereo not given) | 1.55 |  | 
COc1cccc(/C=N/NC(=O)Cn2cnc3c2c(=O)n(C)c(=O)n3C)c1 | 24.3 | 20.6 µM [rising, partial curve] | 
COCC(C)NS(=O)(=O)c1ccc(C)cc1 (stereo not given) | -93.5 |  | 23.1 µM [falling, partial curve]
COc1ccc(S(=O)(=O)N(CCCN2CCOCC2)Cc2cccc(OC)c2OC)cc1 | -11.9 | 9.2 µM [rising, partial curve, poor fit] | 
Cc1ccc(C(=O)NCC(=O)NCCCc2ccccc2)cc1 |  | 0.231 µM [rising, full curve, poor fit] | 
O=C(CSc1nc(-c2ccc(F)cc2)nc2c1Cc1ccccc1O2)Nc1cccc(C(=O)O)c1 | -16.3 | 0.00461 µM [rising, full curve, poor fit] | 0.00461 µM [rising, full curve, poor fit]

Of the compounds above, 9 contain fluorine:
Compound | cell number change [%] | AC50 [1] | AC50 [2]
CC(=O)NCCn1c(SCc2ccccc2F)nc2ccccc2c1=O | -17.9 | 7.31 µM [falling, partial curve] | 
COC(=O)C1CCN(C(=O)[C@H](C)NC(=O)C2CC(=O)N(c3ccc(F)cc3)C2)CC1 (stereo not given in full) | -16.3 | 2.91 µM [falling, single point] | 
COc1ccccc1COCC(O)CNCCc1ccc(C(F)(F)F)cc1 (stereo not given) |  |  | 4.61 µM [rising, single point]
Fc1cccc(Cl)c1/C=N/Nc1c(Cl)cncc1Cl | 2.7 | 0.82 µM [falling, single point] | 
O=C(Nc1cc(S(=O)(=O)N2CCCCCC2)ccc1OCC(F)(F)F)c1cnccn1 | 25.5 | 20.6 µM [rising, partial curve, poor fit] | 
O=C(c1cccs1)N1CCCC(c2nc(-c3ccc(F)cc3)no2)C1 (stereo not given) | 20.1 | 14.6 µM [rising, partial curve] | 
Cc1nn(-c2nc(-c3ccco3)cc(C(F)(F)F)n2)c(C)c1Cl | 12.4 | 11.6 µM [rising, partial curve, poor fit] | 
Cc1ccc(-c2noc(C3CCCN(C(=O)c4c(F)cccc4F)C3)n2)cc1 (stereo not given) | -17.7 | 25.9 µM [falling, single point] | 0.103 µM [falling, full curve, poor fit]
O=C(CSc1nc(-c2ccc(F)cc2)nc2c1Cc1ccccc1O2)Nc1cccc(C(=O)O)c1 | -16.3 | 0.00461 µM [rising, full curve, poor fit] | 0.00461 µM [rising, full curve, poor fit]

No new results follow: 2 of the compounds above.
Compound | cell number change [%] | AC50 [1] | AC50 [2]
COc1ccc(S(=O)(=O)N(CCCN2CCOCC2)Cc2cccc(OC)c2OC)cc1 | -11.9 | 9.2 µM [rising, partial curve, poor fit] | 
Cc1ccc(C(=O)NCC(=O)NCCCc2ccccc2)cc1 |  | 0.231 µM [rising, full curve, poor fit] | 

(further entries)

Compound | cell number change [%] | AC50 [1] | AC50 [2]
CCOC(=O)C1=C(C(F)(F)F)Nc2ncnn2C1c1cc(OC)ccc1OC (stereo not given) | 21.9 | 5.8 µM [rising, full curve] | 
O/N=C/c1cn(-c2ccccc2)nc1-c1ccccc1 | -46.6 | 29.1 µM [falling, single point] | 18.4 µM [falling, single point]
COc1ccc(NC(=O)CCSc2ccc(C)cc2)cc1S(=O)(=O)Nc1ccccc1Cl | -4.53 | 0.00517 µM [rising, full curve, poor fit] | 
O=c1cnnc(Nc2ccc(Cl)c(C(F)(F)F)c2)[nH]1 | 7.23 | 5.8 µM [falling, single point] | 
COc1ccc(C2NC(=O)NC(O)(C(F)(F)F)C2C(=O)c2ccc(F)cc2)cc1 (stereo not given) | -35.4 | 23.1 µM [falling, partial curve] | 5.17 µM [falling, partial curve]
Cc1cc2nn(-c3ccccc3)nc2cc1NC(=O)c1cccs1 | -2.64 | 1.3 µM [rising, full curve] | 1.64 µM [rising, partial curve]
CCOC(=O)c1c(C)[nH]c(C)c1C(=O)CN1C(=O)NC2(CCCCCC2)C1=O | -24.8 | 29.1 µM [falling, single point] | 
CC(=O)c1ccc(S(=O)(=O)NCCCC(=O)N(C)Cc2ccc3c(c2)OCO3)cc1 | 5.99 | 0.92 µM [falling, full curve, poor fit] | 0.82 µM [falling, full curve, poor fit]
COCCN1C(=O)C(=O)/C(=C(/O)c2ccc(S(=O)(=O)N3CCCCC3)cc2)C1c1ccc(O)c(OC)c1 (stereo not given) | -1.22 | 29.1 µM [rising, single point] | 
COc1ccc(NC(=O)Cn2c(C)csc2=O)c(OC)c1 | 3.16 | 14.6 µM [rising, partial curve] | 
COc1ccc(N2CCN(c3ccc(N4C(=O)CC(C)C4=O)cc3[N+](=O)[O-])CC2)cc1 (stereo not given) | -16.3 | 29.1 µM [falling, single point] | 0.517 µM [rising, full curve, poor fit]
Cc1ccc2c(CN(C)Cc3cccc(F)c3)cc(=O)oc2c1C | 25.7 | 2.31 µM [rising, single point] | 
O=C(OCc1nc2ccsc2c(=O)[nH]1)c1ccco1 |  | 0.13 µM [falling, partial curve, poor fit] | 0.13 µM [falling, full curve, poor fit]
Cn1c(=NC(=O)COc2ccccc2)sc2cccc(F)c21 | 20.3 | 1.64 µM [rising, full curve] | 
CCOc1ccccc1Nc1ncnc2ccc(Br)cc12 | -2.36 |  | 
COC(=O)[C@H](C)NC(=O)Nc1ccc(OC)c(OC)c1 | 11.3 | 20.6 µM [falling, single point] | 
O=C(N/N=C/c1cn(Cc2cccc(F)c2)c2ccccc12)c1cc(O)cc(O)c1 | -37.6 |  | 29.1 µM [falling, single point]
CCOC(=O)N1CCC(N2Cc3cccc(C(=O)NCc4ccc(OC)cc4)c3C2=O)CC1 | 34 | 10.3 µM [rising, partial curve] | 10.3 µM [rising, partial curve]
